Results deposited as PubChem BioAssay AID504793 (Drosophila RNAi Screening Center, 2011).

- Assay: 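Genes required for cells to halt at G2/M after double-strand DNA breaks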 (primary screen)
- System: Drosophila S2R+ cells
- Reagents: long dsRNA against Drosophila genes, about 0.25 µg dsRNA per well
- Time to read-out: 4 days of dsRNA, then 4 hours of drug before read-out
- Conditions: doxorubicin 0.5 µM for 4 hours to cause double-strand breaks, in cells also given a low, harmless dose of dsRNA against nbs to sensitise the assay
- Read-out: 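Mitotic index as the number of phospho-histone H3-positive cells in each well following doxorubicin, given as raw counts without normalisation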
- Scale: mitotic cells: higher = more cells in mitosis, weaker G2 arrest
- Hit rule: 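a call needs confirmation in secondary tests, with other dsRNAs and a check of mitotic timing without damage, not just a high primary count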
- Meaning of the calls: active = confirmed in follow-up tests; inactive = not confirmed
The deposit covers about 23,000 reagents; below is a random part of those with a known target gene and a result. Over the whole deposit, 62 (0.27%) were called active. 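Calls come from follow-up tests whose scores are not deposited, so confirmed genes may have low counts here; counts are not normalised per plate.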 The raw values are shown without normalisation. Names joined by + are all predicted targets of the reagent.

| gene knocked down | dsRNA | mitotic cells, replicate 1 | Outcome |
| --- | --- | --- | --- |
| CG2931 | DRSC12324 | 3 | inactive |
| CG5592 | DRSC10524 | 5 | inactive |
| CG8026 | DRSC07055 | 13 | inactive |
| CG8026 | DRSC07056 | 5 | inactive |
| CG31870 | DRSC21681 | 10 | inactive |
| CG31870 | DRSC27838 | 10 | inactive |
| pAbp | DRSC07659 | 2 | inactive |
| Rbp4 | DRSC16818 | 5 | inactive |
| Rbp4 | DRSC27818 | 3 | inactive |
| numb | DRSC03584 | 4 | inactive |
| hrm | DRSC04853 | 7 | inactive |
| CG14644 | DRSC12230 | 1 | inactive |
| Klp59C | DRSC04348 | 5 | inactive |
| Klp59C | DRSC24637 | 4 | inactive |
| GstT3 | DRSC20541 | 9 | inactive |
| CG32650 | DRSC19899 | 4 | inactive |
| CG9459 | DRSC16496 | 6 | inactive |
| CG11180 | DRSC06055 | 2 | inactive |
| CG11180 | DRSC28153 | 3 | inactive |
| Rbm13 | DRSC17749 | 9 | inactive |
| Rbm13 | DRSC25416 | 2 | inactive |
| E(z) | DRSC11147 | 1 | inactive |
| E(z) | DRSC29388 | 9 | inactive |
| Chro | DRSC11630 | 5 | inactive |
| CG13721 | DRSC08330 | 6 | inactive |
| CG5276 | DRSC15759 | 3 | inactive |
| CG5860 | DRSC15896 | 4 | inactive |
| Ufl1 | DRSC12527 | 6 | inactive |
| bs | DRSC23068 | 11 | inactive |
| bs | DRSC25943 | 7 | inactive |
| CG10077 | DRSC09691 | 7 | inactive |
| CG10077 | DRSC24756 | 7 | inactive |
| Acp53Ea | DRSC05916 | 9 | inactive |
| CG18586 | DRSC10325 | 2 | inactive |
| Hinfp | DRSC18484 | 11 | inactive |
| Hinfp | DRSC24069 | 15 | inactive |
| S | DRSC24973 | 3 | inactive |
| Vha68-1 | DRSC03470 | 9 | inactive |
| CG31145 | DRSC14206 | 10 | inactive |
| CG31145 | DRSC14671 | 8 | inactive |
| CG31145 | DRSC26758 | 2 | inactive |
| CG9986 | DRSC16586 | 4 | inactive |
| CG9986 | DRSC29323 | 6 | inactive |
| Wnt4 | DRSC00976 | 15 | inactive |
| Wnt4 | DRSC03477 | 4 | inactive |
| CG30037 | DRSC07305 | 3 | inactive |
| Diedel3 | DRSC19544 | 7 | inactive |
| Gas8 | DRSC22884 | 8 | inactive |
| Gas8 | DRSC29253 | 2 | inactive |
| BicC | DRSC02005 | 4 | inactive |
| BicC | DRSC29676 | 5 | inactive |
| Or67b | DRSC11241 | 4 | inactive |
| CG32628 (retired record) | DRSC19405 | 6 | inactive |
| Sas-6 | DRSC15061 | 24 | inactive |
| Osi9 | DRSC12278 | 4 | inactive |
| Osi9 | DRSC28928 | 2 | inactive |
| CG33506 | DRSC05981 | 6 | inactive |
| Nepl12 | DRSC16411 | 8 | inactive |
| Idi | DRSC15918 | 2 | inactive |
| CG18735 | DRSC04312 | 9 | inactive |
| CG18735 | DRSC24372 | 4 | inactive |
| CG17944 | DRSC12572 | 1 | inactive |
| Sap130 | DRSC09680 | 9 | inactive |
| Sap130 | DRSC28079 | 5 | inactive |
| CG18477 + CG31780 | DRSC01955 | 4 | inactive |
| Lipt2 | DRSC12338 | 16 | inactive |
| Lipt2 | DRSC22610 | 11 | inactive |
| dgt2 | DRSC02548 | 36 | inactive |
| dgt2 | DRSC29741 | 48 | inactive |
| Mmp2 | DRSC06698 | 6 | inactive |
| Mmp2 | DRSC22024 | 14 | inactive |
| Mmp2 | DRSC25458 | 11 | inactive |
| CG2972 | DRSC18250 | 4 | inactive |
| CG2972 | DRSC30013 | 14 | inactive |
| RIC-3 | DRSC04243 | 8 | inactive |
| RIC-3 | DRSC04543 | 5 | inactive |
